Here are results for 38 targets from the supplement of paper PMC10849652.

Sequences of proteins named here, by UniProt entry; tags and fusion partners are left off. A change or cut given only in a name is not applied to a line headed by its entry.
UniProt Q9Y6Q2: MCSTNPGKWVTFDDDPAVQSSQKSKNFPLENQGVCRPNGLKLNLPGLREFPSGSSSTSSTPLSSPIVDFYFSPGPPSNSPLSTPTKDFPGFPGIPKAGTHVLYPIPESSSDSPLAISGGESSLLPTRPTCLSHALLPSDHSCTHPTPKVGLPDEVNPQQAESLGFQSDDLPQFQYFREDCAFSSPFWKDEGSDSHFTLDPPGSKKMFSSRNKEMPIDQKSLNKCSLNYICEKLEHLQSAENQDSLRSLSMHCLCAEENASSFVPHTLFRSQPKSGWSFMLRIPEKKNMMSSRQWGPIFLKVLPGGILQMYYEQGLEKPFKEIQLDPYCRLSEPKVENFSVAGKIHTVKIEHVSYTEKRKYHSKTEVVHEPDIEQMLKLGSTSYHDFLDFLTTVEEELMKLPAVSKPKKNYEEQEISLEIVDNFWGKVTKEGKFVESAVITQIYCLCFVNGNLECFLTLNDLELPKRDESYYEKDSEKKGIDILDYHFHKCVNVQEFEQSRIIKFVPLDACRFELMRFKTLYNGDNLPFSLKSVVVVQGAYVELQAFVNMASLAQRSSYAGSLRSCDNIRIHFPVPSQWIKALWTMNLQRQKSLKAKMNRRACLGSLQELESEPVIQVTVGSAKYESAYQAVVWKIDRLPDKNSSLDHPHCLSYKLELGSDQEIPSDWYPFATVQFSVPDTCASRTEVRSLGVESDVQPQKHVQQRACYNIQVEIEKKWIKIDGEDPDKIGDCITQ
UniProt Q96A49: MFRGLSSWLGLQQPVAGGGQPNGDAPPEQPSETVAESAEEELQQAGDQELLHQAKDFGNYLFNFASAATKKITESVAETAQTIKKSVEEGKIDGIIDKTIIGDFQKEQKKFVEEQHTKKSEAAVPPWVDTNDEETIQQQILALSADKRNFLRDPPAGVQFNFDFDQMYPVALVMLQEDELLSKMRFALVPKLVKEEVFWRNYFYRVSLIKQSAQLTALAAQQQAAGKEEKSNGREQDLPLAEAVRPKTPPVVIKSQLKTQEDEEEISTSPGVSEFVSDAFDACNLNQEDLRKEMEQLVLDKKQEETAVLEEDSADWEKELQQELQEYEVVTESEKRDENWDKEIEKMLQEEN
UniProt Q9NRL3: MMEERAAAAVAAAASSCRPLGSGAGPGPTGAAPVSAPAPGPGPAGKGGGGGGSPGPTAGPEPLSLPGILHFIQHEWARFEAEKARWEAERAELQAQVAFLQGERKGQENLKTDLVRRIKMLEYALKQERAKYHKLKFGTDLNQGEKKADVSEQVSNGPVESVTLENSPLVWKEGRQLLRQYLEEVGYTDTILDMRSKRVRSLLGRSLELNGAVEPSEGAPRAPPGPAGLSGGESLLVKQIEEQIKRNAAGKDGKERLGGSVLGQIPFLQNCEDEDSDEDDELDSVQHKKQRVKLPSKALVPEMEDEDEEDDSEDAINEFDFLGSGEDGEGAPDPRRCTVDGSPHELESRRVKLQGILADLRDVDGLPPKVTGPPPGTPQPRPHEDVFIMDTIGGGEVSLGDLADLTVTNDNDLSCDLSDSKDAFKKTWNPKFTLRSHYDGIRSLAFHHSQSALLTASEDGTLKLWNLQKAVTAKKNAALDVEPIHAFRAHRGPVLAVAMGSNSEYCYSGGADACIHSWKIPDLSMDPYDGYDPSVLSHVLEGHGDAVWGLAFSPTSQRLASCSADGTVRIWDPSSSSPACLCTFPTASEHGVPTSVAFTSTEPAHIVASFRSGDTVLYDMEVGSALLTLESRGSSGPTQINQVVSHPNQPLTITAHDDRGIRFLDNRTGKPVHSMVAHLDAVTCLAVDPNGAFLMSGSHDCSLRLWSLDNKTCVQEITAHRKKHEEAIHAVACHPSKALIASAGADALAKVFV
UniProt Q16514: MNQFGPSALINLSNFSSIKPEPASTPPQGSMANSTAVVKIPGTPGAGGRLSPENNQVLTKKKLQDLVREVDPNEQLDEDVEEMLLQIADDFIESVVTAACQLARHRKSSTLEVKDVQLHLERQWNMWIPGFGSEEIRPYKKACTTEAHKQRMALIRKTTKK
UniProt Q9P289: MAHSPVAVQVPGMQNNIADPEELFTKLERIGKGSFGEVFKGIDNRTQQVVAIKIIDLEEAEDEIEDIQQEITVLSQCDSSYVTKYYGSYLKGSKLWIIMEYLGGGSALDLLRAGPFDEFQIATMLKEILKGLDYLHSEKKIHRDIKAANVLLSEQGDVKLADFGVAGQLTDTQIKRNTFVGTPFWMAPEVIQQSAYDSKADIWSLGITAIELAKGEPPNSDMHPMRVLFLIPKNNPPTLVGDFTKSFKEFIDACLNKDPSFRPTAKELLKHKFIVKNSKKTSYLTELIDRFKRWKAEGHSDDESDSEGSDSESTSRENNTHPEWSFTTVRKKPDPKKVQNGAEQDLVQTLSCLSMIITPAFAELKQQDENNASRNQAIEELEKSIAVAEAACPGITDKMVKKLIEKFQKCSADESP
UniProt Q5VSL9: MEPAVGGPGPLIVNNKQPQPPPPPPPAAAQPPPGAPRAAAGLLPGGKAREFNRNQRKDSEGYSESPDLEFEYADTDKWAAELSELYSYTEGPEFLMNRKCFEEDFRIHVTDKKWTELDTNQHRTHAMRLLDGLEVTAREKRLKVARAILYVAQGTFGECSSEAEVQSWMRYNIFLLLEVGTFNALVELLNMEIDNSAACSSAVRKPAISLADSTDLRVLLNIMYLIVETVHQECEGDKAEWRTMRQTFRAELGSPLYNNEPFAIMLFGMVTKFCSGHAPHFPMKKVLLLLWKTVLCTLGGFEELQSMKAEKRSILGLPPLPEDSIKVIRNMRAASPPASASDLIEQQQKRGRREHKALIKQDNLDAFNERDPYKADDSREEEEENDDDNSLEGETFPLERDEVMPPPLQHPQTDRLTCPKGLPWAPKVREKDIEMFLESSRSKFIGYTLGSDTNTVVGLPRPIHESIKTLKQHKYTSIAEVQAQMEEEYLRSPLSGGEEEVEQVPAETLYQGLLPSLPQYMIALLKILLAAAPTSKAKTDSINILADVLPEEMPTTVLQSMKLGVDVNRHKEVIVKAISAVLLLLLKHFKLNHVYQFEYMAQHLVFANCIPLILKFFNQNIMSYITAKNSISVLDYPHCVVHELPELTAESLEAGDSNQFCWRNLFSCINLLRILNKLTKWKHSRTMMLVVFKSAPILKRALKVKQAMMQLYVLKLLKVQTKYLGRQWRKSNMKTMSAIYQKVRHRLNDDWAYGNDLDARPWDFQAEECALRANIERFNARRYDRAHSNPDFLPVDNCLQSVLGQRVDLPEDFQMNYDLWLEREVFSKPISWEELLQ
UniProt O15056: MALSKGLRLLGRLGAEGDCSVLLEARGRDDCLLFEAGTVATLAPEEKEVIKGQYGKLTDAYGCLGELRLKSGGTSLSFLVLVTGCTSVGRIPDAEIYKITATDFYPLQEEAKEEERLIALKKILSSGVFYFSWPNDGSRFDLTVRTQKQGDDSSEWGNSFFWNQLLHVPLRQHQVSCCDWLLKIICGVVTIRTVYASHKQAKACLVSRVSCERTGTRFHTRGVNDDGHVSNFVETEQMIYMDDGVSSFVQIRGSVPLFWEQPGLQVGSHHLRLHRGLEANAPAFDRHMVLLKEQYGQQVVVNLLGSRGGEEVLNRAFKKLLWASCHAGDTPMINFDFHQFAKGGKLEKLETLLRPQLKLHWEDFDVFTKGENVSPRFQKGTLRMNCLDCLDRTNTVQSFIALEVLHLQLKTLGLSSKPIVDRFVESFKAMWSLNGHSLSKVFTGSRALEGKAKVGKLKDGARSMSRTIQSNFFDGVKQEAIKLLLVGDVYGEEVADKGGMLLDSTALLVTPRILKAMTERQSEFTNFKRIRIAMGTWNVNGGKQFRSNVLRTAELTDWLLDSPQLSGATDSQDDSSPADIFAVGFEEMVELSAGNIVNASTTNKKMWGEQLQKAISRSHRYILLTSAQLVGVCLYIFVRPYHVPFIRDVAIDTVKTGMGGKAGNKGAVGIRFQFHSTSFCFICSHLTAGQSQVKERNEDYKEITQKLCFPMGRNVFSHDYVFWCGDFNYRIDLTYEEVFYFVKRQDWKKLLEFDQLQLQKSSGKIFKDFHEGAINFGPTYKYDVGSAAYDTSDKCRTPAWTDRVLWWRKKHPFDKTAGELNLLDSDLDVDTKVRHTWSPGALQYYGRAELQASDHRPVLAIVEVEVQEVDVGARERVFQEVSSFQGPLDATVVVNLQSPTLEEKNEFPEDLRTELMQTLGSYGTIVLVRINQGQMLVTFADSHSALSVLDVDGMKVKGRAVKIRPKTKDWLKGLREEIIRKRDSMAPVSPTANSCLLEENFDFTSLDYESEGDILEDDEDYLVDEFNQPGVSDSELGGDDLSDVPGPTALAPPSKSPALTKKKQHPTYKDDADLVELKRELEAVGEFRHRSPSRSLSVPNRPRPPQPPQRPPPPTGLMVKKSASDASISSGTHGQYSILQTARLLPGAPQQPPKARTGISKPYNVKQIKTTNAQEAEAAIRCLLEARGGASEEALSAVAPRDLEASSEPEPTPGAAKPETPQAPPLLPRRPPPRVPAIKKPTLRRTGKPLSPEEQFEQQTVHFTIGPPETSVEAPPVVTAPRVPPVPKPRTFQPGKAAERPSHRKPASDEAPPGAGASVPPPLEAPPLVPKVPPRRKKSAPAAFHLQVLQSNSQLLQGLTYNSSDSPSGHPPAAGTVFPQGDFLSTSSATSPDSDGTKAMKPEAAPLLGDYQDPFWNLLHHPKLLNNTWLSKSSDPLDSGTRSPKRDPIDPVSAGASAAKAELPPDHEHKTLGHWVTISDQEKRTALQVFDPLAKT
UniProt Q8NBJ7: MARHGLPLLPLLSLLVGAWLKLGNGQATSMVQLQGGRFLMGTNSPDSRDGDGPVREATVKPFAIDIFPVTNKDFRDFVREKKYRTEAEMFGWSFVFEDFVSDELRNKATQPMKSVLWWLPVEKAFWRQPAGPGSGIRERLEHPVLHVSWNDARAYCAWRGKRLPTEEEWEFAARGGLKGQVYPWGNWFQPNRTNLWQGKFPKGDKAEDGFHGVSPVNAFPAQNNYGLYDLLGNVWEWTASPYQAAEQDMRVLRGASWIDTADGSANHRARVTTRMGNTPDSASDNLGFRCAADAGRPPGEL
UniProt Q8NHG7: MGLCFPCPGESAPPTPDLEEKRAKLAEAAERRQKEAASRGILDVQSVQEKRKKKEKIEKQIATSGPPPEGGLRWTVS
UniProt O75528: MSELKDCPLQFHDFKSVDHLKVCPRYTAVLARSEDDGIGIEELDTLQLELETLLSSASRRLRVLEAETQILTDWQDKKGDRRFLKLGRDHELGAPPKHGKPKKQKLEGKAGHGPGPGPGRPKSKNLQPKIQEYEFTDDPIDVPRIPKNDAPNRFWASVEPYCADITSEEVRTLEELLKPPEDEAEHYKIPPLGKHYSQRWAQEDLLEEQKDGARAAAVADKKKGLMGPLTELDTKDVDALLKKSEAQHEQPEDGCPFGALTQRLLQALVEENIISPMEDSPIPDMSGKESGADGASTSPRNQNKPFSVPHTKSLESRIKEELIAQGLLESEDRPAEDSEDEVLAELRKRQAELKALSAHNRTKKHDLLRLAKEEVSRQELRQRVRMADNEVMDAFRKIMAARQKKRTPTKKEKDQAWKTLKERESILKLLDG
UniProt P63165, whole entry, looked up: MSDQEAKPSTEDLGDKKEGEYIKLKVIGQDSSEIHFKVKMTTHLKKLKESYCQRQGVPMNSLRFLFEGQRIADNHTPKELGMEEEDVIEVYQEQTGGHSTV
UniProt Q13190: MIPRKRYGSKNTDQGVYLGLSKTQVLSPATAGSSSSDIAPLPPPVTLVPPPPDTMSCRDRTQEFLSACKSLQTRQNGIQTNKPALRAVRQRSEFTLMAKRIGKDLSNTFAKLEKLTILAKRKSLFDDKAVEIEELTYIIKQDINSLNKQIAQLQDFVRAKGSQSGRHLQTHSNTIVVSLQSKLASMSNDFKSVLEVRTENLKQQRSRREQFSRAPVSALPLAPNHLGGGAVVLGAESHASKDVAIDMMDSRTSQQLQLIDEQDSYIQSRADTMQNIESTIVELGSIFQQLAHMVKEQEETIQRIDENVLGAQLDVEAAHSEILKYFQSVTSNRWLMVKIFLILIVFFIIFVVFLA
UniProt Q93045: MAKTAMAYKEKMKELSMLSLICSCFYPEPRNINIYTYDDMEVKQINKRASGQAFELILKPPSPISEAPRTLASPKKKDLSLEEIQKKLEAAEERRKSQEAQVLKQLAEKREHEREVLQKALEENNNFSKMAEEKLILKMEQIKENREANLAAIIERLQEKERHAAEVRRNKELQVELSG
UniProt Q9Y3F4: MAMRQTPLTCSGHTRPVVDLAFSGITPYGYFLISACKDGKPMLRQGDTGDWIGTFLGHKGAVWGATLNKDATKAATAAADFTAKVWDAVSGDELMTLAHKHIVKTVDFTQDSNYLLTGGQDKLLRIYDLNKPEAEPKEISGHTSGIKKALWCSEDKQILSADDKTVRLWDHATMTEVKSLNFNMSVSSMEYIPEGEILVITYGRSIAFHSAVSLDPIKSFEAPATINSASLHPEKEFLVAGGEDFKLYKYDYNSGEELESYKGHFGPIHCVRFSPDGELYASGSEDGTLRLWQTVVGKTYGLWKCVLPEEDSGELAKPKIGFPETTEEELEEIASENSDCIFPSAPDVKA

This is one part of the list.

Compound in the first assay: CS(=O)(=O)CCNCc1ccc(-c2ccc3ncnc(Nc4ccc(OCc5cccc(F)c5)c(Cl)c4)c3c2)o1 [lapatinib]
Kind of assay: log2 fold change, soluble protein after heating vs DMSO (PISA); higher = thermal stabilisation; K562 lysate, 10 uM; active = over 0.2 and 3.5 SD of the protein, either way, in both replicates (recomputed). The essentials: (§1)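 Log-two fold change in thermal stability relative to solvent controls is reported from duplicates. For each sample, crude K562 extract from dounce-homogenised pellets in PBS pH 7.4 with 1 mM MgCl2, at 1 mg/mL protein, was treated with 10 μM compound for 30 min. Aliquots heated for 3 min across 48°C-58°C were pooled, brought to 0.5% NP-40 at 4°C and cleared at 21,000xg for 90 min. The supernatant was quantified by TMTpro 16plex LC-MS/MS with channel sums equalised.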
With SYNE1 (UniProt Q8NF91), the log2 fold change is inactive: -0.032.

As to STON1 isoform 2 (UniProt Q9Y6Q2), the log2 fold change was inactive: -0.128.

On to TACO1 (UniProt Q9BSH4), for which the log2 fold change was inactive: -0.022.

For STRN3 (UniProt Q13033), the log2 fold change was inactive: 0.006.

In the case of STXBP5 (UniProt Q5T5C0), the log2 fold change is inactive: -0.008.

On to SUPT16H (UniProt Q9Y5B9), for which the log2 fold change was inactive: 0.01.

For the target SYAP1 (UniProt Q96A49), the log2 fold change is inactive: 0.141.

TADA1 (UniProt Q96BN2): the log2 fold change was inactive: 0.024.

For STRN4 isoform 3 (UniProt Q9NRL3), the log2 fold change is inactive: 0.049.

For STMN1 (UniProt P16949), the log2 fold change is inactive: -0.024.

For the target TAF4B (UniProt Q92750), the log2 fold change was inactive: -0.165.

Turning to SYP (UniProt P08247), the log2 fold change was inactive: 0.006.

With SUGP1 (UniProt Q8IWZ8), the log2 fold change was inactive: 0.015.

On to TACC3 (UniProt Q9Y6A5), for which the log2 fold change was inactive: 0.001.

For the target TAF12 (UniProt Q16514), the log2 fold change was inactive: 0.037.

Regarding TAB1 (UniProt Q15750), the log2 fold change was inactive: -0.013.

Take STK26 (UniProt Q9P289): the log2 fold change was inactive: -0.011.

For the target STRIP1 (UniProt Q5VSL9), the log2 fold change is inactive: 0.009.

Consider SYNJ2 (UniProt O15056), for which the log2 fold change was inactive: 0.012.

For the target SUMF2 (UniProt Q8NBJ7), the log2 fold change is inactive: 0.038.

STX18 (UniProt Q9P2W9): the log2 fold change was inactive: -0.007.

In the case of STK3 isoform 2 (UniProt Q13188), the log2 fold change is inactive: -0.045.

STK39 (UniProt Q9UEW8): the log2 fold change is inactive: 0.011.

Take SVIP (UniProt Q8NHG7): the log2 fold change is inactive: 0.005.

For the target SYNCRIP (UniProt O60506), the log2 fold change is inactive: -0.007.

Turning to TAF2 (UniProt Q6P1X5), the log2 fold change was inactive: -0.002.

Consider TADA3 (UniProt O75528), for which the log2 fold change was inactive: -0.005.

Regarding STRIP2 (UniProt Q9ULQ0), the log2 fold change was inactive: 0.036.

As for SUMO1 (UniProt P63165), the log2 fold change was inactive: 0.01.

Take SUB1 (UniProt P53999): the log2 fold change is inactive: 0.003.

Take SYPL1 (UniProt Q16563): the log2 fold change is inactive: 0.015.

Regarding TAF1B (UniProt Q53T94), the log2 fold change was inactive: 0.012.

Take SYNRG (UniProt Q9UMZ2): the log2 fold change was inactive: 0.022.

Regarding STX5 (UniProt Q13190), the log2 fold change was inactive: -0.014.

On to STMN2 isoform 2 (UniProt Q93045), for which the log2 fold change is inactive: -0.07.

Take STXBP3 (UniProt O00186): the log2 fold change is inactive: 0.008.

In the case of STRAP isoform 2 (UniProt Q9Y3F4), the log2 fold change was inactive: -0.021.

On to SUCLA2 (UniProt Q9P2R7), for which the log2 fold change is inactive: 0.013.

Compound in another assay: CS(=O)(=O)N1CCN(Cc2cc3nc(-c4cccc5[nH]ncc45)nc(N4CCOCC4)c3s2)CC1 [pictilisib]
Described as above. In a few lines:
as §1
For SYNE1 (UniProt Q8NF91), the log2 fold change is inactive: -0.058.

As for TACO1 (UniProt Q9BSH4), the log2 fold change was inactive: -0.027.

On to STRN3 (UniProt Q13033), for which the log2 fold change is inactive: -0.01.

Turning to STXBP5 (UniProt Q5T5C0), the log2 fold change was inactive: -0.01.

Take SUPT16H (UniProt Q9Y5B9): the log2 fold change is inactive: -0.013.

As to SYAP1 (UniProt Q96A49), the log2 fold change is inactive: 0.015.

For the target TADA1 (UniProt Q96BN2), the log2 fold change is inactive: -0.066.

In the case of STRN4 isoform 3 (UniProt Q9NRL3), the log2 fold change was inactive: 0.009.

With STMN1 (UniProt P16949), the log2 fold change was inactive: 0.

TAF4B (UniProt Q92750): the log2 fold change was inactive: -0.108.

Regarding SYP (UniProt P08247), the log2 fold change is inactive: 0.057.

As for SUGP1 (UniProt Q8IWZ8), the log2 fold change was inactive: -0.002.

TACC3 (UniProt Q9Y6A5): the log2 fold change is inactive: 0.007.

Take TAF12 (UniProt Q16514): the log2 fold change is inactive: 0.023.

As to TAB1 (UniProt Q15750), the log2 fold change is inactive: 0.011.

With STK26 (UniProt Q9P289), the log2 fold change is inactive: 0.024.

As to STRIP1 (UniProt Q5VSL9), the log2 fold change was inactive: -0.062.

Regarding SYNJ2 (UniProt O15056), the log2 fold change is inactive: -0.002.

Consider SUMF2 (UniProt Q8NBJ7), for which the log2 fold change was inactive: 0.003.

Consider STX18 (UniProt Q9P2W9), for which the log2 fold change is inactive: 0.058.

STK3 isoform 2 (UniProt Q13188): the log2 fold change was inactive: 0.02.

As to STK39 (UniProt Q9UEW8), the log2 fold change was inactive: -0.038.

Turning to SVIP (UniProt Q8NHG7), the log2 fold change was inactive: -0.03.

Regarding SYNCRIP (UniProt O60506), the log2 fold change is inactive: 0.007.

In the case of TAF2 (UniProt Q6P1X5), the log2 fold change is inactive: -0.123.

For the target TADA3 (UniProt O75528), the log2 fold change is inactive: 0.009.

For STRIP2 (UniProt Q9ULQ0), the log2 fold change was inactive: -0.015.

With SUMO1 (UniProt P63165), the log2 fold change is inactive: -0.051.

With SUB1 (UniProt P53999), the log2 fold change was inactive: 0.024.

Regarding SYPL1 (UniProt Q16563), the log2 fold change is inactive: -0.025.

Consider TAF1B (UniProt Q53T94), for which the log2 fold change is inactive: 0.062.

On to SYNRG (UniProt Q9UMZ2), for which the log2 fold change is inactive: -0.016.

On to STX5 (UniProt Q13190), for which the log2 fold change was inactive: -0.064.

With STMN2 isoform 2 (UniProt Q93045), the log2 fold change was inactive: 0.026.

As to STXBP3 (UniProt O00186), the log2 fold change is inactive: -0.104.

For the target STRAP isoform 2 (UniProt Q9Y3F4), the log2 fold change is inactive: -0.005.

SUCLA2 (UniProt Q9P2R7): the log2 fold change is inactive: -0.047.
